Some of the results follow.

Chains of the proteins cited; added tags and fusions are not shown. Lines headed by an entry give the natural chain unless they say otherwise; changes in a name come on top.
UniProt Q9BW62: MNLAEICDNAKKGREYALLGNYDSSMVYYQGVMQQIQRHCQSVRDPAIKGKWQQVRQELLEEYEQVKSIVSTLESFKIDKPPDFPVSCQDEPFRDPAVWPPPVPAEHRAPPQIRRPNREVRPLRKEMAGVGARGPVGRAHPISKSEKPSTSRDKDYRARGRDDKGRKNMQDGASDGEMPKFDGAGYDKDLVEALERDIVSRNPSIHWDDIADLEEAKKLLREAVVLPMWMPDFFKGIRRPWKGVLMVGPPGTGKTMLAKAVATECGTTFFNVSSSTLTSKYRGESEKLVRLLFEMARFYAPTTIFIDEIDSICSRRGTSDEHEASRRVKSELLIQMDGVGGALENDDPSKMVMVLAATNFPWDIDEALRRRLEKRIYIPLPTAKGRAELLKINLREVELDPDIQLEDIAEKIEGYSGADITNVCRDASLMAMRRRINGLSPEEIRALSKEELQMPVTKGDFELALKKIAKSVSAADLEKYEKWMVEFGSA
UniProt Q9BW19: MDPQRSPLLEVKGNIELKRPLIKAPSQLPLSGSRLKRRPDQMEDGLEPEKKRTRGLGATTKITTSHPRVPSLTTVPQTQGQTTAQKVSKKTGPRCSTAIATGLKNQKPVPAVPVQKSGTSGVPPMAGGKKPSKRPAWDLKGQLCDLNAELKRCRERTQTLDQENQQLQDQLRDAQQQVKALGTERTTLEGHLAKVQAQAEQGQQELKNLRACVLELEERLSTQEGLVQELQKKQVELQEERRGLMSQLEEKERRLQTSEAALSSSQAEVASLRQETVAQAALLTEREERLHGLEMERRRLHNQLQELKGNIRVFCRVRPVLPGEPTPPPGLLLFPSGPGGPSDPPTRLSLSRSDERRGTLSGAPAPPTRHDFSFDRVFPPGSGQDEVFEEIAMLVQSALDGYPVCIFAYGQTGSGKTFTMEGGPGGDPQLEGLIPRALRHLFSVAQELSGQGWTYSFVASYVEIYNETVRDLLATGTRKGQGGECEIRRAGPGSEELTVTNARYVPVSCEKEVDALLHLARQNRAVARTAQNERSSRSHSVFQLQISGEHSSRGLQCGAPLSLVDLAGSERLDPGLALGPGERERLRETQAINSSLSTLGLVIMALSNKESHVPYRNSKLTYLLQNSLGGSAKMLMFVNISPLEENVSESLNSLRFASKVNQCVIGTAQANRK
UniProt Q15811: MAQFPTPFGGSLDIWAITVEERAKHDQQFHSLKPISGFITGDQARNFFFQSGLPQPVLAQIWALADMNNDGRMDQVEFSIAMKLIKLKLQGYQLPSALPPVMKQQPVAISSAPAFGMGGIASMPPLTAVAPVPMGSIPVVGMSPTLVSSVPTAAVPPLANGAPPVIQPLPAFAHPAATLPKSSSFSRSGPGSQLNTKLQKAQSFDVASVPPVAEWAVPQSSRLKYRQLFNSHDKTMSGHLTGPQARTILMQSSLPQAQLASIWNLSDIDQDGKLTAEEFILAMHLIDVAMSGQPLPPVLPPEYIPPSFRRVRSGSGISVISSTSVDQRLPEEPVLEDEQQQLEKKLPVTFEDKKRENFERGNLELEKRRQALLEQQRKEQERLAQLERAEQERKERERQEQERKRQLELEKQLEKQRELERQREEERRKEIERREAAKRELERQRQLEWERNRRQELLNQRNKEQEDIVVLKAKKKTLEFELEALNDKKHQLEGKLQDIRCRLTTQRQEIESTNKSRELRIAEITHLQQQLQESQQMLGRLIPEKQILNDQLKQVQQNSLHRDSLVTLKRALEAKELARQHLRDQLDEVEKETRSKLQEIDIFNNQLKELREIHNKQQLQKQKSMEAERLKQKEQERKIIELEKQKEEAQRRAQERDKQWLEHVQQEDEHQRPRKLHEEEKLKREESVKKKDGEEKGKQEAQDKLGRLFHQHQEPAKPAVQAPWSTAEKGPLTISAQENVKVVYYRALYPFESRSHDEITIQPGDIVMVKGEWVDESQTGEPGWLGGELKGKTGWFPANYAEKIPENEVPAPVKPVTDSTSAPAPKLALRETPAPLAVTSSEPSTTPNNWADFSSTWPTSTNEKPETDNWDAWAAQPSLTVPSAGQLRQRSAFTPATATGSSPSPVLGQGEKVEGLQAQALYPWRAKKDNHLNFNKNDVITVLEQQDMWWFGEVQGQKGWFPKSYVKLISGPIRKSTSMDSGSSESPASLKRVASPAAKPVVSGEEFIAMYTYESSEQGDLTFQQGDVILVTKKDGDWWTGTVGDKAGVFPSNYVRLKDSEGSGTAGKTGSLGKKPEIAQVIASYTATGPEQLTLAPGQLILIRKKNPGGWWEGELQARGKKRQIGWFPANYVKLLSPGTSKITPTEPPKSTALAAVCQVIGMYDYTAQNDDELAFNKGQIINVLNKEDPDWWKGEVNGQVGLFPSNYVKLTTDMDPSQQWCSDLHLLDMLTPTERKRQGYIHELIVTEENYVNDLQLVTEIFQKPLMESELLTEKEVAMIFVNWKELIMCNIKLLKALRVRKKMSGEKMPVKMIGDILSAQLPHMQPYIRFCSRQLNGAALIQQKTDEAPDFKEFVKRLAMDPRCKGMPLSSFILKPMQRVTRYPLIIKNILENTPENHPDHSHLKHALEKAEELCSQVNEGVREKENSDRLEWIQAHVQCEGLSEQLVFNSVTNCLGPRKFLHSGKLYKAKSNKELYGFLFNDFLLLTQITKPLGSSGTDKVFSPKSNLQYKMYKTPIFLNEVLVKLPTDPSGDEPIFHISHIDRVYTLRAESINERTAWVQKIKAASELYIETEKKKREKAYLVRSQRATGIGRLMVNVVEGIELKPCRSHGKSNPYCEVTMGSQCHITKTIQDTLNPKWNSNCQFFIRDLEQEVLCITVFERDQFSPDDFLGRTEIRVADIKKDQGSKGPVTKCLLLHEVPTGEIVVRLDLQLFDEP
UniProt Q92845: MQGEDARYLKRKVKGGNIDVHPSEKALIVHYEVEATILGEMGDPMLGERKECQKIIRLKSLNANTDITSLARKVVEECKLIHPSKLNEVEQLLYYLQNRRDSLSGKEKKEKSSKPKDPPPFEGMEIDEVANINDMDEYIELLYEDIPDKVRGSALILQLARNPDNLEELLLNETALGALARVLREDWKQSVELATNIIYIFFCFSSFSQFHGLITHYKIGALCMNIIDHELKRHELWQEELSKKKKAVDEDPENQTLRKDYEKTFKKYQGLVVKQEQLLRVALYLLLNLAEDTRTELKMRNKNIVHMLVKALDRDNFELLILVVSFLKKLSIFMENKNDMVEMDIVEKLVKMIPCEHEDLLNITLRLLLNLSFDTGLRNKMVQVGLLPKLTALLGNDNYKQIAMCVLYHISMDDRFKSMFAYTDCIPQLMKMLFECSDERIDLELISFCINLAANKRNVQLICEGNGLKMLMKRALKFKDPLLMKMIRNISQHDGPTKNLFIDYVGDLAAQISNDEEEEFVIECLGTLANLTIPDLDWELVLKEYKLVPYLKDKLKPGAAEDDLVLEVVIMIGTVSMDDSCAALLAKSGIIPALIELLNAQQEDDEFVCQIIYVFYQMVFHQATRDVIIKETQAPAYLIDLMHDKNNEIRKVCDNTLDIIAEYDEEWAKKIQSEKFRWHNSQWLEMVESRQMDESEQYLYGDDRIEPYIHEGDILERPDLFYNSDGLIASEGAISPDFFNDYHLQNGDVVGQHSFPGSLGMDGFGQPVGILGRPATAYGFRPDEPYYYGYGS
UniProt Q719H9: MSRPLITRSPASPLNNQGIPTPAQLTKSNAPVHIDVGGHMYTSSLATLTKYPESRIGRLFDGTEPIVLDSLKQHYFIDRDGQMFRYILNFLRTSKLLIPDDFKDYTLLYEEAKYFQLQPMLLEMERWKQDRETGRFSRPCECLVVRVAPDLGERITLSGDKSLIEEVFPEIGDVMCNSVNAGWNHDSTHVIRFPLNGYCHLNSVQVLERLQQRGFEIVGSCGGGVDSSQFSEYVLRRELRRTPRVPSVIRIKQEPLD
UniProt Q8IXQ5, whole entry, looked up: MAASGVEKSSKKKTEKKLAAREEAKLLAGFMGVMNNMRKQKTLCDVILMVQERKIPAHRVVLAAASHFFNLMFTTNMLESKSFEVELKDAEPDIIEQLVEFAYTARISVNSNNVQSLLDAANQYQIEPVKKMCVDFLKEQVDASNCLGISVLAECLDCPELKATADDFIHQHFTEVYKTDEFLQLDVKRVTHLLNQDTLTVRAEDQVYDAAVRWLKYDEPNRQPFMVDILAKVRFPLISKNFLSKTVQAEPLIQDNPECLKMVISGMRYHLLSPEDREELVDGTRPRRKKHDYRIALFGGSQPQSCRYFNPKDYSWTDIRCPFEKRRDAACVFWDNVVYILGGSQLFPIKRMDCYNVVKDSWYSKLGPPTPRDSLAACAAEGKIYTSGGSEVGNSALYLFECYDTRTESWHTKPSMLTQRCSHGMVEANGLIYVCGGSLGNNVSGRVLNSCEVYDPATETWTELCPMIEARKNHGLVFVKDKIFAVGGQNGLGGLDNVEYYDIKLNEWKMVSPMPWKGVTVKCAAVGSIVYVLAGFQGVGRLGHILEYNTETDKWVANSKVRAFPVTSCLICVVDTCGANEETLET
UniProt Q8NFY9: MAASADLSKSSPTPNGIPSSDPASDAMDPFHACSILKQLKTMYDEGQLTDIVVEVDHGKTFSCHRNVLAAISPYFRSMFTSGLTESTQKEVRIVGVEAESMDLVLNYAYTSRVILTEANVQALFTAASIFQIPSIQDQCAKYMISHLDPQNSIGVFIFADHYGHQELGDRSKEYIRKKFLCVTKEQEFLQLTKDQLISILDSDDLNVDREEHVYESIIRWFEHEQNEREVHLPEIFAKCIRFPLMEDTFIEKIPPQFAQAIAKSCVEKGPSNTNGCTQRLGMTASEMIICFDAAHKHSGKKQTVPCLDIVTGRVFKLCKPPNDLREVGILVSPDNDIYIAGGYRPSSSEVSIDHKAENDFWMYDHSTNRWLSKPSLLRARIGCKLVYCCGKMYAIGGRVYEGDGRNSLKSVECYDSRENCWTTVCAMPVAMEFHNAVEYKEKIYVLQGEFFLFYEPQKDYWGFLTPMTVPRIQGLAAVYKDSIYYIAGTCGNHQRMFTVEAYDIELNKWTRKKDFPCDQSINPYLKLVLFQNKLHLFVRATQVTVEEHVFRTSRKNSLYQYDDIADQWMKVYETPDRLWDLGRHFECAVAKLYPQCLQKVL
UniProt Q6TDP4, whole entry, looked up: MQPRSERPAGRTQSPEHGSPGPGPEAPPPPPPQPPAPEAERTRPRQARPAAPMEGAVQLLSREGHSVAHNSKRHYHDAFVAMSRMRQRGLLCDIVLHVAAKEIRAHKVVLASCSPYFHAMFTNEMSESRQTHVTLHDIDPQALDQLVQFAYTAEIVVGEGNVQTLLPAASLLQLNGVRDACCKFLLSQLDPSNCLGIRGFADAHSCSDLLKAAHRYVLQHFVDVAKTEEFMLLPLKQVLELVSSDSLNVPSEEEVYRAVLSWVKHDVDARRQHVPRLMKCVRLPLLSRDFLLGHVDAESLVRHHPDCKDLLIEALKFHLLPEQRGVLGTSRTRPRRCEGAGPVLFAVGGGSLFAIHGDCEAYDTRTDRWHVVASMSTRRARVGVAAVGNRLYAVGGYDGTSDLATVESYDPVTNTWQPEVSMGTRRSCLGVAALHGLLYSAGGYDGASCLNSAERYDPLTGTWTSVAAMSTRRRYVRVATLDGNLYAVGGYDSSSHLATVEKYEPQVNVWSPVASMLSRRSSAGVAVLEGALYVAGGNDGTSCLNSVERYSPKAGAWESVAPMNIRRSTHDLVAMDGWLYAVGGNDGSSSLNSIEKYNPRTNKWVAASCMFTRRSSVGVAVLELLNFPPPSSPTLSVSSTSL
UniProt Q9P2K6: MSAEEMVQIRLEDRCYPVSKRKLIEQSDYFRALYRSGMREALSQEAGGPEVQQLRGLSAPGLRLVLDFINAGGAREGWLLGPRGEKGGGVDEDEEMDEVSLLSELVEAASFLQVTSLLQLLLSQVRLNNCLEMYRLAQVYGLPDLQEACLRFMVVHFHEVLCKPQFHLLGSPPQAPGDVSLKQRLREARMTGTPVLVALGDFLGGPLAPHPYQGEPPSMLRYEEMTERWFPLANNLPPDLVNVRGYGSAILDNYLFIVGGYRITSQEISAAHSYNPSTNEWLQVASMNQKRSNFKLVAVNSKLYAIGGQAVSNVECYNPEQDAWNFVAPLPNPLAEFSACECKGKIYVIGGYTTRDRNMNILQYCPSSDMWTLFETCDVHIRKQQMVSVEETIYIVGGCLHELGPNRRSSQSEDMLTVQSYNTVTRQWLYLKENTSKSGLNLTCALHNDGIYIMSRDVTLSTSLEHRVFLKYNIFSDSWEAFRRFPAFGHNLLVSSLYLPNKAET

Compound in this assay: C1=CC(=C(C=C1Cl)C2=NC3=NC=CN=C3C(=N2)NC4=CC=NC=C4)F
Kind of assay: log2 fold change, soluble protein after heating vs DMSO (PISA); higher = thermal stabilisation; K562 cells, 10 uM, 30 min; active = over 0.2 and 3.5 SD of the protein, either way, in both replicates (recomputed). The gist of the method:
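Thermal stability values are relative to control samples and come from duplicates. They are expressed as log2 fold changes. For measurement, K562 cells (2×10^6 cells/mL) received 10 μM compound for 30 min, and aliquots were heated for 3 min over 48°C-58°C, pooled, and extracted at 4°C in PBS with 0.5% NP-40. Soluble protein, the supernatant after 21,000xg for 90 min, was quantified by TMTpro 16plex LC-MS/MS with equalised channel sums.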
As to KATNAL1 (UniProt Q9BW62), the log2 fold change is inactive: -0.004.

As to KIDINS220 isoform 2 (UniProt Q9ULH0), the log2 fold change is inactive: 0.087.

For KIFC1 (UniProt Q9BW19), the log2 fold change is inactive: -0.058.

Regarding KLHL36 (UniProt Q8N4N3), the log2 fold change is inactive: -0.049.

For ITSN1 (UniProt Q15811), the log2 fold change was inactive: 0.101.

With KIF20A (UniProt O95235), the log2 fold change was inactive: -0.041.

For KIFAP3 (UniProt Q92845), the log2 fold change is inactive: 0.015.

With KCTD1 (UniProt Q719H9), the log2 fold change was inactive: 0.003.

In the case of KLHL7 isoform 3 (UniProt Q8IXQ5), the log2 fold change is inactive: -0.083.

In the case of KBTBD8 (UniProt Q8NFY9), the log2 fold change was inactive: -0.061.

KDM6A (UniProt O15550): the log2 fold change was inactive: -0.052.

In the case of KLHL17 (UniProt Q6TDP4), the log2 fold change is inactive: -0.336.

For KIAA0754 (UniProt O94854), the log2 fold change is inactive: -0.222.

In the case of KHSRP (UniProt M0R3J3), the log2 fold change was inactive: -0.059.

Take KLHL42 (UniProt Q9P2K6): the log2 fold change was inactive: 0.001.
